Reference: US8440430, “Modified dicer polypeptide and methods of use thereof” (The Regents of the University of California)

Amino acid sequences for entries named in this document (tags omitted). Residues count along the entry.
UniProt Q9UPY3, 605-1843: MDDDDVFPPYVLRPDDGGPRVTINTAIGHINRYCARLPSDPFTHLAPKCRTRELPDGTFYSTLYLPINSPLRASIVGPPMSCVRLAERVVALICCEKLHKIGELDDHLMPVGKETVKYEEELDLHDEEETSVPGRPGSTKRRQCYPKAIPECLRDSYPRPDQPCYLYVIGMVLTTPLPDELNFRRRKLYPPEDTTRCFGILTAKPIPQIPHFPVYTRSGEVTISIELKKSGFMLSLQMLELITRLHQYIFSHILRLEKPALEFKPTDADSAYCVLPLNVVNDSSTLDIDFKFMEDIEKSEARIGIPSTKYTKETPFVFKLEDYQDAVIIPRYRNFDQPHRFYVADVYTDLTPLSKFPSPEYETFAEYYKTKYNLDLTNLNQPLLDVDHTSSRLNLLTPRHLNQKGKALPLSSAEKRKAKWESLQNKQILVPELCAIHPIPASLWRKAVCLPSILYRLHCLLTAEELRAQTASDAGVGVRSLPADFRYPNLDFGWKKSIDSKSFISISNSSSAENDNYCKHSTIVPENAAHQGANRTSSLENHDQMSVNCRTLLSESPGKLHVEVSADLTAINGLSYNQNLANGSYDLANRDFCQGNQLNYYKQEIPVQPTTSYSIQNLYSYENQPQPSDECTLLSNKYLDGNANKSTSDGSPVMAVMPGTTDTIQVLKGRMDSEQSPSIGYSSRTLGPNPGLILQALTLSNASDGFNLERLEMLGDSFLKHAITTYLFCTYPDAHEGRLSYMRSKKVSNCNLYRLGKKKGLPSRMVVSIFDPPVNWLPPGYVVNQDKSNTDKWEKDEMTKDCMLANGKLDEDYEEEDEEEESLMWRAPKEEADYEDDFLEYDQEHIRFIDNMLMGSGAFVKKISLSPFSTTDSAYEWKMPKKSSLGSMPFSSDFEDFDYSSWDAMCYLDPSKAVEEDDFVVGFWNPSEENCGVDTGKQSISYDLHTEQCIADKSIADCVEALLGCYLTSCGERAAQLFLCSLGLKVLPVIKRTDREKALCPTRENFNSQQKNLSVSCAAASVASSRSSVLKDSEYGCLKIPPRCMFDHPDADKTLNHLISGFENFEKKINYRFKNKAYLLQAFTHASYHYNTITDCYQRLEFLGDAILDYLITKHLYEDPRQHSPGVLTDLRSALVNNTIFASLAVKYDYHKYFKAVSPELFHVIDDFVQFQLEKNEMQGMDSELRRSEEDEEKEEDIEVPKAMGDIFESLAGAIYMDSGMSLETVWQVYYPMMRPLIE
UniProt Q9UPY3, 605-1922, stated change not applied: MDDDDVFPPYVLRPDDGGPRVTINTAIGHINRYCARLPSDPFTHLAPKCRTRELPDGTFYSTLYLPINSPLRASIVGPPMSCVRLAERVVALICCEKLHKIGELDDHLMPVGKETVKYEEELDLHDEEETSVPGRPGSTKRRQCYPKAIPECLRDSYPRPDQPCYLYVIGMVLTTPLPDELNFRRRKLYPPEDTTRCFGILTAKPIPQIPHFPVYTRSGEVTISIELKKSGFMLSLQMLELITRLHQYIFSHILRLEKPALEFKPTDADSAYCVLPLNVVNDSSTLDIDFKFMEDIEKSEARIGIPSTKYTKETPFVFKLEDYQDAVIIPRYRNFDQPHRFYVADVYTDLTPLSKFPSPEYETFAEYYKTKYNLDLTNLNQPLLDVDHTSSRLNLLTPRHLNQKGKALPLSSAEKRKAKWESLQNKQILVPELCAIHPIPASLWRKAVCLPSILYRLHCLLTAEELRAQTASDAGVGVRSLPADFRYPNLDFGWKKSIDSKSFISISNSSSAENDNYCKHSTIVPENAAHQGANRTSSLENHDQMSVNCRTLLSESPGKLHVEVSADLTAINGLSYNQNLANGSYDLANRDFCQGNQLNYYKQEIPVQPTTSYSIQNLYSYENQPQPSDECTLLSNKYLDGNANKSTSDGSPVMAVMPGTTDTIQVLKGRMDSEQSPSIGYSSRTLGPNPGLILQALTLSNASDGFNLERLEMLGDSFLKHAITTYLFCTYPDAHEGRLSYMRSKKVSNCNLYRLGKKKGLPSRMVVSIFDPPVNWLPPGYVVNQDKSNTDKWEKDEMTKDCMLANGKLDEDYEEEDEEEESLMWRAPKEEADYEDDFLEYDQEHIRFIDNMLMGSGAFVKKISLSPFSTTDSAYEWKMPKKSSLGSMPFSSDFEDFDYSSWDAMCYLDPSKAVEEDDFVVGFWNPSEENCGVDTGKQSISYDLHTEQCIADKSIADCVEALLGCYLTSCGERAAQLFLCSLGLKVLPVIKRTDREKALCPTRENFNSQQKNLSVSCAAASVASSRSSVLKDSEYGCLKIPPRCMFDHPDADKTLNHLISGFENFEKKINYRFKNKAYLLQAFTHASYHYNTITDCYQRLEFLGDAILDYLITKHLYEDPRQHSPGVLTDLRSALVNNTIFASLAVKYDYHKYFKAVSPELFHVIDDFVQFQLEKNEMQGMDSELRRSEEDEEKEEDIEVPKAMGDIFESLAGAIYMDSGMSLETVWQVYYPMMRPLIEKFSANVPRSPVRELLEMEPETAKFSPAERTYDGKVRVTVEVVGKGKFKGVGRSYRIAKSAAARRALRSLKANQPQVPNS
UniProt Q9UPY3, whole entry K70A: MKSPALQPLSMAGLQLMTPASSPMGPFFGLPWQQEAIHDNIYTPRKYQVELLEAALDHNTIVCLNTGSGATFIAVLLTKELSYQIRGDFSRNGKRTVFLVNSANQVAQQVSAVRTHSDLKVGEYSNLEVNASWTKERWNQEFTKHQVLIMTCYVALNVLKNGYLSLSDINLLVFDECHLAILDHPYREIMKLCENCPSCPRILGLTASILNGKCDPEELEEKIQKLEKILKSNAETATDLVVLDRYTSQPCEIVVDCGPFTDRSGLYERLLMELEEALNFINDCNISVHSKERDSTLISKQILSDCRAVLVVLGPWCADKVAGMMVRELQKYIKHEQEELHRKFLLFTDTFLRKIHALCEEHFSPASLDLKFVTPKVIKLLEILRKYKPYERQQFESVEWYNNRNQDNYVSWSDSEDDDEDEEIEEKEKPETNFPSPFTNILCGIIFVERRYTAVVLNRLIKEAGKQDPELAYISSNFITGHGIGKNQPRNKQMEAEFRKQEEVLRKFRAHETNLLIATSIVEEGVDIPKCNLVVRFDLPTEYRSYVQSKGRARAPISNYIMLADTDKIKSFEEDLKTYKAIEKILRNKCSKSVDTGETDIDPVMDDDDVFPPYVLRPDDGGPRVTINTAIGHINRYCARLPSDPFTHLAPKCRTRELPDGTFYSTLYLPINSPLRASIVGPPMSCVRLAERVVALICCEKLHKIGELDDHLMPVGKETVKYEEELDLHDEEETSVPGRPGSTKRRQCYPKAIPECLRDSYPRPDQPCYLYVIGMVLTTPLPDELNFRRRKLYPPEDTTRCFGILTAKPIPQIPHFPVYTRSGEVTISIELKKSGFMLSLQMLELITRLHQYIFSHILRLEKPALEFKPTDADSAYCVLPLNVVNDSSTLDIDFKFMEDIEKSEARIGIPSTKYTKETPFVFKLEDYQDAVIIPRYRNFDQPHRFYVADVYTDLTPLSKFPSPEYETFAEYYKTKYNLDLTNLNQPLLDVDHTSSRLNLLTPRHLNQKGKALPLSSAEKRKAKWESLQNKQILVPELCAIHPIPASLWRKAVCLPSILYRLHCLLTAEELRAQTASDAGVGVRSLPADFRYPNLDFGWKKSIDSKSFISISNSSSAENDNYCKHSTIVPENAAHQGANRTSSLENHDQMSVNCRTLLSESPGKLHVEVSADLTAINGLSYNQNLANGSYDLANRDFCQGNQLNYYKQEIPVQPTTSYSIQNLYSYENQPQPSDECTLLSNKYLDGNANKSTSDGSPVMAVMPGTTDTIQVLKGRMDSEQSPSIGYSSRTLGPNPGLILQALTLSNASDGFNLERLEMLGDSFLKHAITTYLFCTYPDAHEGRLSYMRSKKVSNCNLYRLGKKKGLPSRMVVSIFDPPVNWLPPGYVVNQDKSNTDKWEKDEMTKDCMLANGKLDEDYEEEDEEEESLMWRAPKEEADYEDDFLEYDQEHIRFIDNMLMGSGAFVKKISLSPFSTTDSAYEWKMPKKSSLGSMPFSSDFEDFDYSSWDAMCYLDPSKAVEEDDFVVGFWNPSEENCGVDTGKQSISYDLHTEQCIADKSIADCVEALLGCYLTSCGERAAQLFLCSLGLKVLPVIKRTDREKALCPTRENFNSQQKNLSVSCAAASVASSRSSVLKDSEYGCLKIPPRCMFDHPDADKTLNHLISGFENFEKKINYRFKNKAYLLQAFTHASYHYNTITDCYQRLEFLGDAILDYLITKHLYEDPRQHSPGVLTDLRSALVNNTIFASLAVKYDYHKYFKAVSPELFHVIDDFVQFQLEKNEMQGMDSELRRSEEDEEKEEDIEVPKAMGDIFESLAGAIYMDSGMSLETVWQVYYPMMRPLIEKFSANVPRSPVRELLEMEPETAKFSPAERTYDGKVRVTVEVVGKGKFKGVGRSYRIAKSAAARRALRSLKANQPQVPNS
UniProt Q9UPY3, 1-1843, stated change not applied: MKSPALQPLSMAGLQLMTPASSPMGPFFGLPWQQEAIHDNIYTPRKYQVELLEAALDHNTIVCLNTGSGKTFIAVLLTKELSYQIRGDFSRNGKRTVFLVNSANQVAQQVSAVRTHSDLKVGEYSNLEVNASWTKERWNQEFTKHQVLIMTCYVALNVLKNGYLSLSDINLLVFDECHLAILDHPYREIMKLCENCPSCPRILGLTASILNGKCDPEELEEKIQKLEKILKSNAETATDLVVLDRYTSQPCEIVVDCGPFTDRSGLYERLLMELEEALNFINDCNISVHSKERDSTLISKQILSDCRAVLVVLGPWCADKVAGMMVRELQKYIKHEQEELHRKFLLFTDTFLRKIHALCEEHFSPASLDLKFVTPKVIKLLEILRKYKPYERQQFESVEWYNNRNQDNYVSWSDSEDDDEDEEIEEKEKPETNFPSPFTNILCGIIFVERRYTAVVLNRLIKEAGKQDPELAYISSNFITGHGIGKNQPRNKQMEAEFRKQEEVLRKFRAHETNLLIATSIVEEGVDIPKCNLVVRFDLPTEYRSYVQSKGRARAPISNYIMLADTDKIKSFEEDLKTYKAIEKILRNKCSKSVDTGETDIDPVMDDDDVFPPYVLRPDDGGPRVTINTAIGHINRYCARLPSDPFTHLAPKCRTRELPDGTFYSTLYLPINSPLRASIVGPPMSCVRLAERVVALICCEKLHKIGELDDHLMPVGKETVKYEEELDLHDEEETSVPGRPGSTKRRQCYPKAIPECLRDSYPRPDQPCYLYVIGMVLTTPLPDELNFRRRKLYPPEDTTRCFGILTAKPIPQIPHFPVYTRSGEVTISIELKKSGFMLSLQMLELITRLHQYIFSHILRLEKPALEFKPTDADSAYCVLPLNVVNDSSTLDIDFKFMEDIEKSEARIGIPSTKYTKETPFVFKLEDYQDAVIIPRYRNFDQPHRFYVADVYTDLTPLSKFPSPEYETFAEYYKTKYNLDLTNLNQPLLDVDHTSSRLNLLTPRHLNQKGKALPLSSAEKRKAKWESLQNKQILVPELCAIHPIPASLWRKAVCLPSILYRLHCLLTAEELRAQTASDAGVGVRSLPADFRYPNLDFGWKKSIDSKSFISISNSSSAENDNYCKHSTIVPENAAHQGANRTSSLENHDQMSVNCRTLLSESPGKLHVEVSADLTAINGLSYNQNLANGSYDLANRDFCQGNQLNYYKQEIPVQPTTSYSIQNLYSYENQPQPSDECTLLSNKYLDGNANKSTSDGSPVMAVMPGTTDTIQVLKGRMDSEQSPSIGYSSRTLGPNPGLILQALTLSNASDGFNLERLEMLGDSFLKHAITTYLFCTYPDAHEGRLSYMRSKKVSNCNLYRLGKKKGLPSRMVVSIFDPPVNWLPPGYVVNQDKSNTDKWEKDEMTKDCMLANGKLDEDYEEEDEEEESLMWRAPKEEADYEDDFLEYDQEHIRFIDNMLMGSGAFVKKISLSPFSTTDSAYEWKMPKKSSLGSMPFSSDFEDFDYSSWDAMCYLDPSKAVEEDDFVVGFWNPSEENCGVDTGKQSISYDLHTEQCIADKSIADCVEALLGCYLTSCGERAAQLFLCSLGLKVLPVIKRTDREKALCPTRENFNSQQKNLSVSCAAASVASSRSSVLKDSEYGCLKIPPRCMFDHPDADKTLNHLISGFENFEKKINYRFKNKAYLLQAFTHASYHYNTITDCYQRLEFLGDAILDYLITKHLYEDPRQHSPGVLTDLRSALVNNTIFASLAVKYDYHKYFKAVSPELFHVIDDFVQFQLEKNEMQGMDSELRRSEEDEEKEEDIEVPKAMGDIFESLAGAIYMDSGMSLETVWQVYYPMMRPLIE

What was measured:
[1] = target: 2DD human Dicer (lacks DExD/H-box domain and dsRBD) del1-604, del1844-1922 (Homo sapiens) (UniProt Q9UPY3); assay: filter binding; conditions: 5 mM EDTA, purified recombinant protein
[2] = target: ΔDEAD human Dicer (lacks DExD/H-box domain, aa 1-604 deleted) (Homo sapiens) (UniProt Q9UPY3); assay: enzyme reaction in vitro; conditions: single turnover; no pronounced stimulation vs wild-type; 1.5 mM MgCl2; purified recombinant protein; label: 5'-32P
[3] = target: wild-type human Dicer (flhDcr) (Homo sapiens) (UniProt Q9UPY3); assay: enzyme reaction in vitro; conditions: single turnover; in general pre-let7 cleaved 6-18 fold more rapidly than 37ab; 1.5 mM MgCl2; purified recombinant protein; label: 5'-32P
[4] = target: hWalker human Dicer (K70A) (Homo sapiens) (UniProt Q9UPY3); assay: enzyme reaction in vitro; conditions: single-turnover cleavage significantly faster than wild-type; 1.5 mM MgCl2; purified recombinant protein; label: 5'-32P on one strand
[5] = target: 2DD human Dicer (lacks DExD/H-box domain and dsRBD) del1-604, del1844-1922 (Homo sapiens) (UniProt Q9UPY3); assay: enzyme reaction in vitro; conditions: active in dicing assay, 60 nM protein; 1.5 mM MgCl2; purified recombinant protein; label: 5'-32P on one strand
[6] = target: ΔdsRBD human Dicer del1844-1922 (Homo sapiens) (UniProt Q9UPY3); assay: enzyme reaction in vitro; conditions: single-turnover cleavage rate significantly reduced vs wild-type; 1.5 mM MgCl2; purified recombinant protein; label: 5'-32P on one strand
[7] = tested on: human Dicer-TRBP complex (Homo sapiens); assay: enzyme reaction in vitro; conditions: multiple turnover, 5 nM complex, 100 nM dsRNA; cleavage rate increased vs full-length Dicer alone, less than ΔDEAD; purified recombinant protein; label: 5'-32P on one strand
[8] = target: ΔDUF human Dicer (lacks DUF283) del630-709 (Homo sapiens) (UniProt Q9UPY3); assay: enzyme reaction in vitro; conditions: single-turnover cleavage rate significantly reduced vs wild-type; 1.5 mM MgCl2; purified recombinant protein; label: 5'-32P on one strand

Sequence	binding result ([1]; label: 5'-32P)	activity on this sequence [2]	activity on this sequence [3]	binding result ([1]; label: 5'-32P on one strand)	activity on this sequence [4]	activity on this sequence [5]	activity on this sequence [6]	activity on this sequence [7]	activity on this sequence [8]
UGAGGUAGUAGGUUGUAUAGUUUUAGGGUCACACCCACCACUGGGAGAUAACUAUACAAUCUACUGUCUUACC [pre-hlet-7 hairpin RNA]	binds more weakly	active	active						
UGAGGUAGUAGGUUGUAUAGUUUGAAAGUUCACGAUU / UCGUGAACUUUCAAACUAUACAACCUACUACCUCAUU [37ab duplex RNA]				binds more weakly	active	active	active	active	active

For part of these data: Weaker means in comparison with the reference protein, sequence or condition of that experiment.
